Test results taken from patent US8882853B2, “Environmentally-friendly solvent for washing and dry-cleaning, and laundry composition including the same” (LG Household & Health Care Ltd., priority 2011, dated 2014).

Tests used:
Conditions in all cases: shaken 30 times, left for 3 minutes, sun drying 8 hours at 23 to 25° C., color difference meter
[1] = Effectiveness in cleaning oil (water)-based contaminants, 20D fabric
[2] = Effectiveness in cleaning oil (water)-based contaminants, JIS fabric
[3] = Effectiveness in cleaning oil (water)-based contaminants, 10D fabric

Structure (SMILES) | Cleaning ability (change in the value of WB), 20D [1] | Cleaning ability (change in the value of WB), JIS [2] | Cleaning ability (change in the value of WB), 10D [3]
O [Com. Ex. 1, Water] | 2.36 | 14.6 | 1.23
CC1(C)OCC(CO)O1 (stereo not drawn) [Example 1, Acetone Glycerol] | 25.22 | 44.97 | 23.62
CCC1(C)OCC(CO)O1 (stereo not drawn) [Example 2, Glycerol-Methyl Ethyl Ketone Ketal] | 24.31 | 42.85 | 28.54
CCCC1OCC(CO)O1 (stereo not drawn) [Example 4, Glycerol-Butylaldehyde Acetal] | 27.6 | 40.62 | 21.38
ClC(Cl)=C(Cl)Cl [Com. Ex. 2, Perchloroethylene] | 30.05 | 53.13 | 35.41
CC(C)CC1(C)OCC(CO)O1 (stereo not drawn) [Example 3, Glycerol-Methyl Isobuthyl Ketone Ketal] | 22.15 | 45.13 | 24.32
C[Si]1(C)O[Si](C)(C)O[Si](C)(C)O[Si](C)(C)O[Si](C)(C)O1 [Com. Ex. 4, Decamethyl-cyclopentasiloxane] | 14.69 | 22.68 | 13.09
COCC(CO)OC (stereo not drawn) [Com. Ex. 6, 2,3-Dimethoxy-1-propanol] | 12.99 | 32.92 | 12.88
